{"source": "PubChem BioAssay AID662", "about": "(National Center for Advancing Translational Sciences (NCATS), 2007)", "note": "This is one part of the list. These are further read-outs of the screen, such as a control signal, another cell line or another target. No call is given for them. The list favours compounds with an active or inconclusive main result. Words in brackets tell the shape of the fitted curve; partial curves, single points and poor fits give uncertain potencies."}
{"test": "Cell signaling CRE-BLA (Fsk stim)", "settings": "CHO CRE-bla reporter (cAMP response element driving beta-lactamase), forskolin EC10, beta-lactamase ratio; measured here: 460 nm blue channel", "summary_of_the_method": "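Modulation of forskolin-driven signalling is measured in CHO cells carrying a CRE-controlled beta-lactamase reporter. Cells are stimulated with EC10 NKH 477 in the presence of titrated compound for 3 h at 37 °C, then loaded with CCF4 for 2 h at room temperature.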"}
{"compound": "Oc1ccc2c(c1)oc1cc(O)ccc12", "AC50": "10 µM [falling, partial curve]"}
{"compound": "CCOc1ccccc1N(CC(=O)NC1CCCCC1)S(C)(=O)=O", "AC50": "1 µM [rising, single point]"}
{"compound": "CCn1c(=O)cc(OCC(=O)N(C)C2CCCCC2)c2ccccc21", "AC50": "7.94 µM [rising, partial curve]"}
{"compound": "COc1cc2c(cc1NC(=O)CN1CCN(S(=O)(=O)c3ccc(F)cc3)CC1)oc1ccccc12", "AC50": "15.8 µM [falling, partial curve, poor fit]"}
{"compound": "c1ccc2c(c1)CCN(c1nc3ccccc3n3cnnc13)C2", "AC50": "0.398 µM [rising, full curve]"}
{"compound": "COC(=O)CSc1nnc(CNC(=O)Cc2ccccc2)n1C", "AC50": "25.1 µM [rising, single point]"}
{"compound": "Cc1cnc(CNc2nc(-c3ccccc3C)nc3ccccc23)cn1", "AC50": "25.1 µM [rising, single point]"}
{"compound": "COc1cc2cc3c4c(cc(OC)c(OC)c4c2cc1OC)CCN3C", "AC50": "3.16 µM [rising, partial curve]"}
{"compound": "O=C(Nc1c(F)cc(F)cc1Br)c1ccco1", "AC50": "12.6 µM [rising, single point]"}
{"compound": "COC(=O)C1=[N+]([O-])OC(C(=O)OC)C1c1c[nH]c2ccccc12", "note": "(stereo not drawn)", "AC50": "0.158 µM [falling, partial curve]"}
{"compound": "COC(=O)c1cc(NC(=O)c2ccoc2C)cc(C(=O)OC)c1", "AC50": "12.6 µM [rising, single point]"}
{"compound": "COc1cccc2cc(-c3csc(CCn4nc(C)cc4C)n3)c(=O)oc12", "AC50": "2 µM [falling, partial curve]"}
{"compound": "C=CS(=O)(=O)c1ccc(Oc2ccc(S(=O)(=O)C=C)cc2)cc1", "AC50": "1.26 µM [falling, full curve]"}
{"compound": "COC(=O)[C@@]1(Cc2ccc(OC)cc2)[C@H]2c3cc(C(=O)N4CCCC4)n(Cc4ccc(OC)c(OC)c4)c3C[C@H]2CN1C(=O)c1ccccc1", "AC50": "0.158 µM [rising, full curve]"}
{"compound": "CC(=O)NCCNc1nc(-c2ccccc2C(F)(F)F)nc2ccccc12", "AC50": "12.6 µM [rising, partial curve]"}
{"compound": "CCn1cc(C(=O)NCc2ccccc2OC)c(=O)c2cc(S(=O)(=O)N(C)C)ccc21", "AC50": "2 µM [rising, full curve]"}
{"compound": "CC(=O)Oc1ccc2cc(-c3nc4ccccc4n3C)c(=O)oc2c1", "AC50": "2.51 µM [rising, full curve]"}
{"compound": "CS(=O)(=O)Nc1cccc(-c2ccc3ncnc(NCc4cccnc4)c3c2)c1", "AC50": "12.6 µM [rising, single point]"}
{"compound": "CCCn1c(-c2ccc(F)cc2)nc2c(N3CCN(CCn4ccnc4)CC3)nc(C)nc21", "AC50": "10 µM [rising, single point]"}
{"compound": "CCn1c(SCC(=O)Nc2cc(C)on2)nc2sc3c(c2c1=O)CCCC3", "AC50": "1 µM [rising, full curve]"}
{"compound": "CC(=O)Nc1nc2n(n1)C(c1ccc(F)cc1)C=C(c1ccccc1)N2", "note": "(stereo not drawn)", "AC50": "12.6 µM [rising, single point]"}
{"compound": "O=C(Nc1ccc(C(F)(F)F)cc1Cl)c1ccc(Cn2cc(Br)cn2)o1", "AC50": "25.1 µM [rising, single point]"}
{"compound": "CCS(=O)(=O)N1CCN(c2cccc(C)c2C)CC1", "AC50": "0.398 µM [rising, partial curve, poor fit]"}
{"compound": "CCC(=O)N1CCN(c2ccc(NC(=O)c3cc4ccccc4o3)cc2Cl)CC1", "AC50": "12.6 µM [falling, partial curve]"}
{"compound": "Cc1ccc(C(=O)Nc2ccccc2C(=O)NC(CC(=O)O)C(=O)O)cc1", "note": "(stereo not drawn)", "AC50": "3.98 µM [falling, partial curve]"}
{"compound": "COCCCNC(=O)c1cc2c(-c3ccc(Cl)cc3)nn(C)c2s1", "AC50": "2.51 µM [rising, full curve]"}
{"compound": "O=C(Nc1cc(C(F)(F)F)ccc1N1CCOCC1)c1n[nH]c(=O)c2ccccc12", "AC50": "1.26 µM [rising, full curve]"}
{"compound": "COc1cc(-c2nnc3sc(Cc4ccccc4)nn23)cc(OC)c1OC", "AC50": "2.51 µM [rising, partial curve, poor fit]"}
{"compound": "CCn1c(SCC(=O)C(C)(C)C)nnc1-c1cccnc1", "AC50": "0.0501 µM [falling, full curve, poor fit]"}
{"compound": "Cc1nc(-n2nnc3ccccc32)c2c3c(sc2n1)CCCC3", "AC50": "3.98 µM [falling, single point]"}
{"compound": "CCNc1ncc2nc(-c3cccc(C#N)c3)c(=O)n(CCC#N)c2n1", "AC50": "3.16 µM [rising, full curve]"}
{"compound": "COC(=O)C1CCN(C(=O)c2sc3nc(-c4ccccc4)cn3c2C)CC1", "AC50": "10 µM [rising, single point]"}
{"compound": "c1ccc(-c2oc3ncnc(NCCCN4CCOCC4)c3c2-c2ccccc2)cc1", "AC50": "2.51 µM [rising, partial curve]"}
{"compound": "COC(=O)C1=C(C)N(c2cccc3ccccc23)C(=O)C1", "AC50": "12.6 µM [falling, partial curve, poor fit]"}
{"compound": "COc1ccc(-c2nc3cnc(Oc4cccc(Cl)c4)nc3n(CCC#N)c2=O)cc1", "AC50": "7.94 µM [rising, partial curve]"}
{"compound": "Cc1ccc2cc(CN(Cc3cccs3)C(=O)c3ccco3)c3nnnn3c2c1C", "AC50": "3.16 µM [rising, partial curve]"}
{"compound": "C=C(C)Cn1c(CCNC(=O)CCC)nc2ccccc21", "AC50": "0.00794 µM [falling, full curve, poor fit]"}
{"compound": "Cn1cnc2c(sc3nc(N4CCOCC4)c4c(c32)CC(C)(C)OC4)c1=O", "AC50": "12.6 µM [rising, partial curve]"}
{"compound": "Cc1noc(C)c1C(=O)Nc1nnc(-c2ccccc2)s1", "AC50": "25.1 µM [rising, single point]"}
{"compound": "O=S(=O)(c1ccc2nc(-c3ccco3)c(-c3ccco3)nc2c1)N1CCOCC1", "AC50": "12.6 µM [rising, single point]"}
{"compound": "CCOc1cccc2cc(-c3cn4cc(C)ccc4n3)c(=O)oc12", "AC50": "0.2 µM [rising, full curve]"}
{"compound": "Cc1noc(C)c1S(=O)(=O)N1CCC2(CC1)OCCO2", "AC50": "3.98 µM [rising, single point]"}
{"compound": "COC(=O)c1ccc(C(NC(=O)OCc2ccccc2)/C(C)=C/[C@@H](C)C(=O)NCCc2c[nH]c3ccc(OC)cc23)cc1", "note": "(stereo partly drawn)", "AC50": "20 µM [falling, single point]"}
